Data from patent EP1591456A1 (Genentech Inc., dated 2005).
Results are given in words; binding and its absence hold for the method and conditions named. Some binding calls cover weakened binding; strength is not graded here.

Assays:
recombinant human DAF = target: T1, recombinant human DAF (human, UniProt P08174 35-353, limits assumed); experiment: flow cytometry competition on 1264 cells, soluble recombinant human DAF as competitor
T1 construct: also called recombinant human decay accelerating factor; CD55
T1 sequence (looked up): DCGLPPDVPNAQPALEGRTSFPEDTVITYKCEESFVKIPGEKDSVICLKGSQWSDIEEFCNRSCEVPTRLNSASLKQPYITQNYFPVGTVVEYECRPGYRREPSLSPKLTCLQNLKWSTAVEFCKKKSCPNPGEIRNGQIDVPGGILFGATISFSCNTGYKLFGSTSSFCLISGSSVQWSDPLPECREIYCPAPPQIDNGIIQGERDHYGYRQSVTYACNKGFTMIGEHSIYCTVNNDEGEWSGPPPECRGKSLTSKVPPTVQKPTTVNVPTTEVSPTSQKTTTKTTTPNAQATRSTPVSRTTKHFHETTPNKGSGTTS

[1] = target: DAF (immunoaffinity purified, detected by western blot) (UniProt P08174); experiment: immunoaffinity purification followed by western blotting with anti-DAF antibody IA10

B1: LU30 scFv fragment (scFv, V domains shown)
VH: QVKLQESGGGLVQPGGSLKLSCAASGFTFSGYGMSWIRQTPDKRLEWVATINSGGSYTYYSDSVKGRFTISRDNVKNTLYLQMSSLKSEDTAMYYCARRNGTLYYYLMDYWGRGTLVTVSS
VL: QSVLTQPPSASGSPGQSVTISCTGTSSDVGGYNYVSWYQQHPGKAPKFMIYDVSKRPSGVSNRFSGSKSGNTASLTISGVQAEDEADYYCSSYTSASTVIFGGGTKLTVL
notes: Human scFv from a naive phage library (Vaughan et al.), secreted from E. coli and purified by its His tag; The full scFv is said to be under GenBank AF117206; also called clone LU30
B1 was tested, and the binding (recombinant human DAF) was “binds”.

B2: LU20 scFv fragment (scFv, V domains shown)
VH: EVQLVETGGGLVQPGRSLRLSCAASGFTFEDYGMHWVRQAPGKGLEWVSGINWNGGSTGYADSVKGRFTISRDNAKNSLYLQMNSLRAEDTALYYCARDAPSGSYGYWFDPWGQGTLVTVSS
VL: DIQMTQSPSTLSASIGDRVTITCRASEGIYHWLAWYQQKPGKAPKLLIYKASSLASGAPSRFSGSGSGTDFTLTISSLQPDDFATYYCQQYSNYPLTFGGGTKLEIK
For B2, the binding [1] was “binds”.

B3: LU13 scFv fragment (scFv, V domains shown)
VH: QVQLQESGGNLVQPGGSLRLSCAASGFTFSSYAMSWVRQAPGKGLEWVSAISGSGGNTYYADSVKGRFTISRDNSKNTLYLQMNTLRAEDTAVYYCARRASYDYWGQGTMVTVSS
VL: QSVLTQPASVSGSPGQSITVSCTGTSSDVGGYNYVSWYQQHPGKAPKLMIYEGSKRPSGVSNRFSGSKSGNTASLTISGLQAEDEADYYCSSYTTRSTRVFGGGTKLTVL
For B3, the binding [1] was “binds”.
